Source: PMC11945409
No constants are given. Whether binding was seen depends on the method and setting. Binding can be weak; no strength is given.

Molecular target: T1, tape measure protein (TMP) gp38 of siphophage T1 (phage T1 (ATCC 11303-B1)) (UniProt Q6XQC4)
T1 sequence: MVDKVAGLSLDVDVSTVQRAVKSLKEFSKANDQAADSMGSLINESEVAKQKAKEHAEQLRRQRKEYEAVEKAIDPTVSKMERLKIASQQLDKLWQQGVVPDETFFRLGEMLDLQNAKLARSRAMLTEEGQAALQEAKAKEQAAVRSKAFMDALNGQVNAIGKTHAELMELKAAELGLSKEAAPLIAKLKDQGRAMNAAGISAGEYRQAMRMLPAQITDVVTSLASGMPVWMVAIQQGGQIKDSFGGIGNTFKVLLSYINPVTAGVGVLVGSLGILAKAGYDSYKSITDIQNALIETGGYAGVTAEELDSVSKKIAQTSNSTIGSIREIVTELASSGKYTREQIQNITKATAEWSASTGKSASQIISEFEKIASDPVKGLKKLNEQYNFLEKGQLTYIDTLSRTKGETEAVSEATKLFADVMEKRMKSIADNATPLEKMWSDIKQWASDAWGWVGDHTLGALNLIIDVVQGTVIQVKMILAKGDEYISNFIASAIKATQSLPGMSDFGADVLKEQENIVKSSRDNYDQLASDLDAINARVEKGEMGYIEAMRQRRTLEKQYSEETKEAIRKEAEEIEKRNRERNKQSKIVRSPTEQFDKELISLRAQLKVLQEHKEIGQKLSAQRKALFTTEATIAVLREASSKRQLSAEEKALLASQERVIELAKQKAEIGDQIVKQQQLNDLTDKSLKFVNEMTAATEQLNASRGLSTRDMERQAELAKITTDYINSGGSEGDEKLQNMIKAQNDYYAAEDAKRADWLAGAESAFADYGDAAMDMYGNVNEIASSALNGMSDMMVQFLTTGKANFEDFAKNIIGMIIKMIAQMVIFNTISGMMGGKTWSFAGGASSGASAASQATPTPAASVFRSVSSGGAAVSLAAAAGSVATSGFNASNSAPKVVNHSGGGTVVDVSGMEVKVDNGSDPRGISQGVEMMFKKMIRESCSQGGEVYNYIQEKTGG
Assay: cryo-EM structure; tail tip of purified mature T1 virions (laboratory-adapted, no lateral fibers); 6.1 Å, after local refinement 4.3 Å, threefold symmetry imposed

## insertion protein gp34 of siphophage T1
  binding: binds
